No constants are given. Whether binding was seen depends on the method and setting.
Target: T1, recombinant wild-type phosphoglycerate kinase 1 (PGK1) (human), P00558
T1 chain: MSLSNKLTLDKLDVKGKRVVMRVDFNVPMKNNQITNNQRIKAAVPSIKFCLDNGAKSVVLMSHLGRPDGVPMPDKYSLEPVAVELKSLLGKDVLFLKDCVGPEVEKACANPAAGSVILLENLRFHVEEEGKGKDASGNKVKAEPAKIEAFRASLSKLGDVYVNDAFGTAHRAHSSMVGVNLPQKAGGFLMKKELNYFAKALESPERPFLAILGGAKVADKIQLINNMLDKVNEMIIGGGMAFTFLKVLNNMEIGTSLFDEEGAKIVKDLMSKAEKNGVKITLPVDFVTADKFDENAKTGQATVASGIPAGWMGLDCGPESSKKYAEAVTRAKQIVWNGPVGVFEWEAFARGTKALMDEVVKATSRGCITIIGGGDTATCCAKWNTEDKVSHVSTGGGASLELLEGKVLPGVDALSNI
Experiment: SEC; analytical gel filtration on Superose 12 HR 10/30 in buffer A (20 mM Tris-HCl pH 8.0, 1 mM EDTA, 2 mM β-mercaptoethanol); 100 µl at 0.1 mg/ml; calibrated with aldolase, albumin, ovoalbumin, chimotrysinogen, ribonuclease; compared with 12% SDS-PAGE; both purified
Details: remark: other sources report otherwise

B1: recombinant wild-type phosphoglycerate kinase 1 (PGK1), P00558-1 1-417 (enzyme)
chain: T1 chain
For B1, the binding was “no binding (tested: 0.1 mg/ml)”.

Source: article PMC3279470
